# Source: doi:10.1101/2020.03.02.973057
# These are yes or no findings as the source states them, for the method shown. For part of these data: Binding calls can cover weak binding; strength is not graded here. Tags and fused reporters may be left off the sequences shown. For part of these data: Binding seen in cells or lysates may run through a third protein.
# B1: V5-MKT1 (protein, UniProt Q587E3 1-735)
# chain: MYPRHDDVSLFQRFVNDHKLEEKGLPLYQLAQLEGTDQVMLGVDGTKIIDMITQAVREREKMAIYTYTTPYTVYEKINEFRTMFQSIKNCTPVFVFNGIQYSPDSAEEFGREKNVVPSEVAALTGTDSSRLSNTTNVRFAEIHKKTANRFVVEEDVEGQIIRIFRSEFKNTIRAPYLAWAQLSSFRHCNHRHISEVYGCLELLAFPGIDRVVTNINPTRGTFDVVYKARVLEAARLSEEDLSSLILVESRSRVMRTVTLKFSSLEDMIKKVVRYKGSTIGASFAQQLHEEAIRASEANRMRASNQRGAAFRNLSAFASPVLTLTPPHCLPLHFLYGIPGFPHADAESFVGLPLPPVLYYIMSAGLLSPSLFAAVSQETVVDDWPLVDSIKYRDVAETVLPLRVQTIYQLAWTMSRGLGSISWFRRYNVLPARVSKLHVPPAIQLDGWALHSVTVPRGLHLVDVMEFAHLACSVDQVIYNTMEETYAAILLQSLDLLGYLTHETQDLHEEGQSSEPSTFGRALQLCSVPTLSEYTVLLIELARTNAISTEPFRITTEEVSPRDTPRDIVFASRVLSIIPLNVSGPWTAPIDAELAAFSMLSRMISRSIRQLLEAITTLMFSKGRTHVPLHRIGEIQRLLPFSTPVEFGCGVLVEYMLMKDKCTLKDLEEAFPECTYLRHDLATLFYFWDLAVQVLQRIETKENFCVDQHCLSSANERMKRAQKNLNILTGVRETYY
# B2: PBP1, yeast two-hybrid fusion (protein, UniProt Q57UZ7 1-550)
# chain: MEGSHSSNMERLEYLYLNLVGQVVQVRLVDDMCVEGLFVACTDVDAETDAGIMICCTRNLASAKRSPLSPSCVNFTDDLFIPYQSIVMIEVQNAKIRTETPGRPDTGRADFSATKFDWADDGVSELLESEPHQTGTWNQFEANEKSFGVKTTYKEEFYTTRLDHSKITEEQRAQADRLAREIESSSTRGIAHRMEREECLHDDEGLDEGQLYSDVHRPQEKKPPYVPPSTGGRKLVNEPPPVPAAAAPATAPTTAPAAAPAPAAAPPAAAPAAAAPPPPPAATSMADDGSMRHKRMNEDPHHMQYDANQTAAGFNPAAAPYTPMKPGAAVPVVDFLASLADAISNNDMCYDCEPHWPGMCNLFYDQDDSSYSQQNYEAAAMPPSHSMNMHMYVNSQPNIPNAHRGYQGPLGRVPHNQSMPMHHMQGQGFHHEMHHHQAFHGMGNYSSQHHNPPIQEYAPHKGQQGVVSRPGMRQGKGGGASRVEPQQPVSANTASSPPPVPTVDSAPNEVKPPAKLQRGRGMAAFTKGDMDGDSGATTNATGGPKKRVGK
# B3: V5-MKT1L (protein, UniProt Q38C92 1-1220)
# chain: MRKAGANRNNERQGRNLGQQGPQMSPPGPSMMYPHHHQHQHHHQHQHQHQHQHQHPHQHPHQHHHHHPHHNGVYGNAYDNIRQPQMPPHSFGQGVSGSPWNSPPQQTPMYNQGYNQMSPGTGGGYGDMGGMYRDVHGGQYPSSPSHMGGGANIPYGRNPAMHNGLPAGAPLPGGYGALPHQGAHTPMGFGRGGQPLMEHMQPSGMYGAPMMRHDGYPDTRVSPPAQVGYGAGAPVGPPPPPPMPAGPPYGGVLPGAGVGPGGPMNASRPPAGIGGGGGGGGNAGYLEMRARGMGPQMPASNASRPPRIGTPDPGMMPPNRMNQSPMMGQGLPPQVGNFMPLPGVSPSPHAMIPTTPSMGDTFPGDDANMSGSTEALYDFLHDRGLVSVDNISKFFPEGYGKDDPALKVAVDGNFCLTSLRDELRKRDSLWFLHSTLPEELLMLVQQHVEWMRNMKLEPIWVFNGLSVSGDVETFLTTEAELRARDAVWSKLEDGEIPDEVEIQEAFDQPLGEDVQMAVARYLKEELGVMAVTAPFLNWAQMVAFHKEGIADLLMGPPEMLLLPYDEMKVIVQIDVSNSSVNYLDRDRVLRALFPNHVTETNTRVAGDRLMDLGLITATHAALSSARVTLNLSMQEVYEELSTPTPKFRSIKDFINAHACSQETGKKAGLSIKHSKGRGYLRYSAVFSTKSRDTPLVYLVRVLDPDLTNADMPTNLAGVLGHLVPLSLFYMQFSGLLSVRIMTAITQSYLRDECPVSDTKDYHTTLGLLMTMRSQVIGQILKRIAHPPPIKRTECLSWVRWFQPILAPMDRPRDLIDLDEWEISDSDQLKKLDEDCLADYSIASVLSVTADASRPAVEESNRPAGRVPIRYNSKRETFLAILLKSFDFLGYFSHSTAPNDAVDGMEMECCGMDGHDRGGSVPAAYHEKDLSSMKRSEASDINFMADEGLKDYPSVYFPIYLRATIKANPLDVQASFVLLTELVRVRIINSNPCRYINPANQQVEISMDDQDTNSDSRVLLASRIACLVKLPYRRASENLPFVWAPVYSRHLCAFTVMVRAMCRCLRELVEVITSTVFLSGNSSCSLQDFAEFASILPFGDVPSTIGGLLLHYVLVFPSDYQANLTSREERIEYLQGKFRDIPDLADHLHLVMSFTLQALYLINAYMLNDKETIVAKDQLTGTIVEDTIEMMWQKWRDHIDDNPPGDIHNLYPPRHQEPIPH
# B4: MKT1L full length, yeast two-hybrid fusion (protein, UniProt Q38C92 1-1220)
# chain: B3 chain
# B5: ZC3H11, yeast two-hybrid fusion (protein, UniProt Q57W26 1-364)
# chain: MSTATSAPVVESMSDTVVCPQLSRHSTSLEELYTIGYNRSHSPSCFSSAGCEEEEGQKNVLAERYKTKLCKNFVQYGTCPYDIRCMFAHGEEELRTAEMNIMDGLVTKDAITSFQKLWHRAVSASSGSKHHSSHVANRRGVMTTATTTTTAGGSTDAAMHICRRMQRVVAAAAAAVPCGGRRVVSGSIRIRGCVRHNPYCHNILPTVSRYYSTMPDVFTRPYSKSDSCGNEAITEGNAWTYANEEGNEKETPAMISSGVPELTAWKRFNYVAERSQCTSVPEQNLPCADFAAIKESNNTGGNASGVDVENVDDAEHSTCSSVGNESGYFCRASRSASCGEQSQSHLKREGNEGRGEGLHMFLSL
# Key:
# [1] = target: ZC3H20 with a HHYNPY -> HYNAA mutation, myc-tagged (Trypanosoma brucei) (UniProt Q57XK8); assay: co-IP
# [2] = target: ZC3H21-myc (Trypanosoma brucei) (UniProt Q57Y77); assay: co-IP
# [3] = target: MKT1LΔN, yeast two-hybrid fusion (Trypanosoma brucei); assay: two-hybrid
# [4] = target: EIF4E6-PTP (Trypanosoma brucei) (UniProt Q57V43); assay: co-IP
# [5] = target: EIF4G5, yeast two-hybrid fusion (Trypanosoma brucei) (UniProt Q57VY5); assay: two-hybrid
# [6] = target: EIF4E6, yeast two-hybrid fusion (Trypanosoma brucei) (UniProt Q57V43); assay: two-hybrid
binder,measurement,setting,value
B1,binding,[1],no binding
same,binding,[2],binds weakly
B2,binding,[3],binds
B3,binding,[1],no binding
same,binding,[2],no binding
same,binding,[4],no binding
B4,binding,[5],no binding
same,binding,[6],no binding
B5,binding,[3],no binding
